Results are given in words; binding and its absence hold for the method and conditions named. Binding seen in cells or lysates may run through a third protein. These calls come from enrichment with a bait or labelling near it, and not all partners need be listed. Sequences can lack the tags named with a protein.

Amino acid sequences for entries named in this document (tags omitted).
UniProt P09874: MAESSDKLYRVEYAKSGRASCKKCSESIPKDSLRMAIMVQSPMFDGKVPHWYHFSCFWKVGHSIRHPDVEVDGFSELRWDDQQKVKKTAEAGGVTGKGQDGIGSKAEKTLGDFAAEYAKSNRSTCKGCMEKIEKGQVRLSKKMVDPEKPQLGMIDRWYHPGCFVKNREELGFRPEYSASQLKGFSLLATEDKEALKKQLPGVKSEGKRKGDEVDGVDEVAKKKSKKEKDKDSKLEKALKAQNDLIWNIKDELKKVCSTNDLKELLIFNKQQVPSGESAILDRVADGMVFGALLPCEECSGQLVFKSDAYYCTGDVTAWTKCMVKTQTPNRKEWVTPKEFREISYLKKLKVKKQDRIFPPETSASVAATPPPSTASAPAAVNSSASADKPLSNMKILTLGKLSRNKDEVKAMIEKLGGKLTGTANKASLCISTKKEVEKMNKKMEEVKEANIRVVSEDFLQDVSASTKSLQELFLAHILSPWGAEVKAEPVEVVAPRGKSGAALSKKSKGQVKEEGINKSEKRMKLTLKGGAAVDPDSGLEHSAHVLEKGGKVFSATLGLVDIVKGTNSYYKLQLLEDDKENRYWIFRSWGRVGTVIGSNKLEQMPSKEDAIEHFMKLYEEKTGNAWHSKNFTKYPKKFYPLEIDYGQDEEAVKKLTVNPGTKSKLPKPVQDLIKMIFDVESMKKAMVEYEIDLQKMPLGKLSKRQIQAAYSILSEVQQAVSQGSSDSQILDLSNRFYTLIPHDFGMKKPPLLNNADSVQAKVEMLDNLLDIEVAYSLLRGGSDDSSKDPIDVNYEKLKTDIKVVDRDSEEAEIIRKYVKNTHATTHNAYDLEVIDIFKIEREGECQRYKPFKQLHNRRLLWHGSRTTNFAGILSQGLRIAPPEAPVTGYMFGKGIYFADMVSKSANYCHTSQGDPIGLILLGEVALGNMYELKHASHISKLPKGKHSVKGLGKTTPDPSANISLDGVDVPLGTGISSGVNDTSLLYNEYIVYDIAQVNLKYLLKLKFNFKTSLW

In this test the target is T1, human wild-type TREX1 (three-prime repair exonuclease 1), N-terminal 3x-FLAG tag (human) (UniProt Q9NSU2).
T1 sequence: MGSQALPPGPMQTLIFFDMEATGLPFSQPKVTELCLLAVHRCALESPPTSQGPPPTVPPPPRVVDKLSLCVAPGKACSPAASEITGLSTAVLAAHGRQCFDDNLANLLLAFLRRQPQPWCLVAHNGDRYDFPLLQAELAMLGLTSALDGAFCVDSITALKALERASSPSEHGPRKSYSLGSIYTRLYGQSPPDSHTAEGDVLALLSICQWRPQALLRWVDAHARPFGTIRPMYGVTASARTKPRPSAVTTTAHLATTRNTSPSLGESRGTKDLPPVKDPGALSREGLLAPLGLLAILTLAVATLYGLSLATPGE
As to the kind of experiment: affinity purification with mass spectrometry; 3x-FLAG-TREX1 (WT or V235Gfs) transfected in HEK 293T; lysis in NP-40 buffer (50 mM HEPES pH 7.4, 150 mM NaCl, 1% NP-40); anti-FLAG M2 agarose beads, 4 °C, 4 h; silver-stained bands absent from the vector control excised, ion-trap mass spectrometry; one screen.

On to PARP1 (from UniProt P09874 1-1014), for which the binding result is given as “binds”.

(Values after PMC11144269.)
